# Test results published in PubChem BioAssay AID540256 (National Center for Advancing Translational Sciences (NCATS), 2011).
# The campaign covered roughly 300,000 compounds. About 3,700 (1.2%) were called active. The shares of active, inactive and inconclusive entries below differ from those in the screen. The call rests on the fitted dose curve; tested in HEK293 cells. Where the call is inconclusive, the potency comes from a doubtful curve fit.
# Experiment: qHTS for Inhibitors of binding or entry into cells for Lassa Virus; further: nearly all actives have a fitted effect of over 50% in size
# Conditions: Lassa virus pseudotype entry inhibition, cell reporter; activity change, negative = inhibition: at 37.9 µM (top of the series) unless noted
# On the % scale 0 is the no-effect control and ±100 the full control effect; potency means the concentration at half of the fitted maximal effect.
SMILES,Potency,"activity change, negative = inhibition"
CC(=O)Nc1ccc(N/C=C/C(=O)c2ccccc2)cc1,"inconclusive: 0.708 µM [activator, single point]",
O=C(CSC1=Nc2ccccc2C2=NC(Cc3ccccc3)C(=O)N12)Nc1cccc(Cl)c1 (configuration not stated),"inconclusive: 11.2 µM [inhibitor, partial curve]",
CCCCc1nc2cc(C(=O)NCCc3c(C)n[nH]c3C)ccc2o1,,inactive: -7.8%
Cc1ccc(NC(=O)CSc2nc(N)cc(=O)[nH]2)cc1S(=O)(=O)N1CCCCCC1,"inconclusive: 35.5 µM [activator, single point]",
CCN(C(=O)CSc1ncnc2c1cnn2-c1ccccc1)C1CCS(=O)(=O)C1 (configuration not stated),"inconclusive: 15.8 µM [inhibitor, partial curve, poor fit]",
COc1ccc(N(C)C(=O)c2cc3c(s2)-c2ccccc2S(=O)(=O)C3)cc1,"inconclusive: 20 µM [inhibitor, partial curve, poor fit]",
Cc1cc([N+](=O)[O-])ccc1N=Nc1c(N)[nH]n(-c2ccccc2)c1=O,,inactive: 1.44%
CC(=O)Nc1ccc(OCC(=O)NCc2ccc3c(c2)OCO3)cc1,,inactive: 7.37%
Cc1ccc(S(=O)(=O)N(CC(=O)N2CCc3ccccc3C2)c2ccc(Cl)c(Cl)c2)cc1,"inconclusive: 20.6 µM [inhibitor, partial curve]",
Cc1ccc(C)c(NS(=O)(=O)c2ccc(OCC(=O)NCC3CCCO3)cc2)c1 (configuration not stated),"inconclusive: 2 µM [inhibitor, partial curve, poor fit]",
O=C(NN=Cc1cccc2ccccc12)C(=O)NN=Cc1cccc2ccccc12,,inactive: 17.2% [at 46.1 µM]
Cc1ccccc1N(C(=O)CCCC(=O)Nc1ccccn1)C(C(=O)NC1CCCC1)c1ccc(O)cc1 (configuration not stated),"inconclusive: 7.08 µM [inhibitor, partial curve, poor fit]",
COc1ccccc1N1CCN(S(=O)(=O)c2cc(C(=O)Nc3ccc(Oc4ccccc4)cc3)ccc2F)CC1,"inconclusive: 1.41 µM [inhibitor, full curve, poor fit]",
CSc1ccc(/C=N/NC(=O)CNc2ccc3ccccc3c2)cc1,"inconclusive: 2.82 µM [inhibitor, partial curve]",
Cc1cccc(OCC(=O)N2CCC3(CC2)CC(=O)c2ccccc2O3)c1,"inconclusive: 5.62 µM [inhibitor, single point]",
CC(C)CCNC(=O)CCCn1c(=O)c2cccn2c2ccccc21,,inactive: -25.1% [at 46.1 µM]
COCC(C)n1c(C)cc(C(=O)COc2ccc(N(C)S(=O)(=O)c3ccc(NC(C)=O)cc3)cc2)c1C (configuration not stated),"inconclusive: 22.4 µM [inhibitor, single point]",
Cc1cccc(CS(=O)(=O)Cc2ccc(C(=O)NCc3ccc(F)cc3)o2)c1,"inconclusive: 35.5 µM [inhibitor, single point]",
O=C(NC1CC1)c1sccc1-n1cccc1,"inconclusive: 22.4 µM [activator, single point]",
CSc1ccccc1OC1CCN(Cc2ccccc2)CC1,"inconclusive: 29.1 µM [inhibitor, single point]",
CCOC(=O)c1c(C)oc2ccc(N(C(=O)c3ccncc3)S(=O)(=O)c3ccc(F)cc3C)cc12,"inconclusive: 8.91 µM [inhibitor, partial curve, poor fit]",

# Reformatted: results already given
SMILES | Potency | activity change, negative = inhibition
O=C(CSC1=Nc2ccccc2C2=NC(Cc3ccccc3)C(=O)N12)Nc1cccc(Cl)c1 (configuration not stated) | inconclusive: 11.2 µM [inhibitor, partial curve] | 
CCCCc1nc2cc(C(=O)NCCc3c(C)n[nH]c3C)ccc2o1 |  | inactive: -7.8%

# Later entries:

SMILES,Potency,"activity change, negative = inhibition"
CC(C)SCC(=O)Nc1ncc2c(n1)-c1ccccc1CC2,"inconclusive: 2.82 µM [inhibitor, full curve, poor fit]",
COc1ccc(Cn2c(=O)n(-c3ccc(C)cc3)c(=O)c3c2c2cc(C)ccc2n3C)cc1,"inconclusive: 28.2 µM [activator, single point]",
Cc1ccc(-n2nnnc2SCn2nnc3ccccc3c2=O)c(C)c1,"inconclusive: 18.3 µM [inhibitor, single point]",
COc1cccc(NC(=O)C/C(C)=N/NC(=O)C2CCCCC2)c1,,inactive: 2.41%
O=C(CSc1nc2c(sc3ccccc32)c(=O)n1CCc1ccccc1)NCc1ccco1,,inactive: 6.01%
COc1cccc(CNC(=O)c2nn(C)c3c2CSc2ccccc2-3)c1,"inconclusive: 35.5 µM [inhibitor, single point]",
CCOc1ccccc1Oc1c(C)oc2c(CN3CCN(CCO)CC3)c(O)ccc2c1=O,,inactive: 28.2%
COc1ccccc1NC(=O)CSc1nnc2c(n1)[nH]c1ccccc12,active: 11.2 µM,
COc1ccc(CCn2c(-c3ccco3)nc3ccccc3c2=O)cc1OC,"inconclusive: 35.5 µM [inhibitor, single point]",
O=C(CN1C(=O)CCc2cc(Br)ccc21)Nc1ccc(OC(F)(F)F)cc1,,inactive: -5.61% [at 46.1 µM]
CCOC(=O)C1(C/C(C)=N/NC(N)=O)CC(C)OC1=O (configuration not stated),"inconclusive: 1.12 µM [inhibitor, partial curve, poor fit]",
Cn1c(=O)c2cc(S(=O)(=O)Nc3cccc(F)c3)ccc2n(C)c1=O,"inconclusive: 1.26 µM [inhibitor, single point]",
COc1cc(OC)c(OC)cc1CNC(=O)c1cccc(S(=O)(=O)N2CCc3ccccc3C2)c1,"inconclusive: 22.4 µM [inhibitor, partial curve, poor fit]",
O=C1CCCN1CC1CCN(Cc2nc(CC3CC3)no2)CC1,"inconclusive: 1 µM [inhibitor, partial curve, poor fit]",
CCc1ccccc1Nc1nc(N)nc(COC(=O)CCC(=O)c2ccc(F)cc2)n1,active: 10 µM,
Cc1ccccc1-c1nc2scc(CCNC(=O)C(=O)Nc3ccc(F)cc3F)n2n1,,inactive: -11.2% [at 46.1 µM]
COc1cccc(/C=N/NC(=O)CCc2ccccc2)c1,"inconclusive: 0.461 µM [inhibitor, full curve, poor fit]",
Cc1cccc(N(C)S(=O)(=O)c2csc(C(N)=O)c2)c1,"inconclusive: 35.5 µM [inhibitor, single point]",
Cc1cc(C)nc(/N=C(\N)Nc2cc([N+](=O)[O-])ccc2C)n1,"inconclusive: 6.51 µM [activator, full curve]",
Cc1nc2ccccn2c1C(=O)NN=C1CCCC1,,inactive: 11.3%
Cc1cccc(C(=O)Nc2ccc(C(=O)/C=C/c3ccncc3)cc2)c1,"inconclusive: 12.6 µM [inhibitor, single point]",
